Measured values taken from US7252824B2 (Mannkind Corporation, priority 2001, dated 2007).
Plain letter strings leave the end groups untold.

Test: peptide made by a vendor
Conditions: whole synthesis

Question: With SSIEGNYTLRVDCTPLMYSLVHLTKEL as the sequence, how does the “purity (crude or final not stated)” value read?
Answer: Its value is “purity>95%”.
